{"source": "PubChem BioAssay AID1159578 (Peter MacCallum Cancer Centre, 2015)", "test": "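Genome-wide hunt for genes controlling movement of lymphatic endothelial cells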 (primary screen)", "cells": "human lymphatic endothelial cells", "knock-down reagent": "siRNA pool against human genes, 40 nM", "timing": "48 h after transfection", "measured": "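Cells stained with dye and imaged after a scratch; covered wound area and nuclei counted, duplicates averaged, migration set against mock wells and turned into a robust z-score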", "direction": "migration robust z-score: higher = faster migration into the scratch; nuclei per well: higher = more cells in the well", "rule for the call": "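Migration changed when robust z exceeds 2 or falls below -2 and mean nuclei number is at least 3300; otherwise not called changed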", "meaning of the calls": "active = migration changed; inactive = no migration change, or too few cells", "note": "Shown is an unselected part of about 18,000 reagents tested. About 1,030 of them (5.7%) count as active. 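Inactive calls also include pools with fewer than 3300 nuclei, whose migration was not assessed.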 The raw values are shown without normalisation. Further read-outs or replicates are left out here."}
{"target":"ZNF667","migration robust z-score":0.1,"migration class with cell-count check":"migration z between -2 and 2; enough cells","nuclei per well, duplicate mean":5654,"call":"inactive"}
{"target":"ATP5F1E","migration robust z-score":-0.7,"migration class with cell-count check":"migration z between -2 and 2; enough cells","nuclei per well, duplicate mean":5760,"call":"inactive"}
{"target":"CRX","migration robust z-score":0.39,"migration class with cell-count check":"migration z between -2 and 2; enough cells","nuclei per well, duplicate mean":4765,"call":"inactive"}
{"target":"PIGM","migration robust z-score":0.34,"migration class with cell-count check":"migration z between -2 and 2; enough cells","nuclei per well, duplicate mean":5541,"call":"inactive"}

Already shown: entries from further up.
{"target":"ZNF667","migration robust z-score":0.1,"migration class with cell-count check":"migration z between -2 and 2; enough cells","nuclei per well, duplicate mean":5654,"call":"inactive"}
{"target":"ATP5F1E","migration robust z-score":-0.7,"migration class with cell-count check":"migration z between -2 and 2; enough cells","nuclei per well, duplicate mean":5760,"call":"inactive"}

Continued.
{"target":"RUVBL2","migration robust z-score":-0.78,"migration class with cell-count check":"migration z between -2 and 2; enough cells","nuclei per well, duplicate mean":5202,"call":"inactive"}
{"target":"ENTPD5","migration robust z-score":-0.76,"migration class with cell-count check":"migration z between -2 and 2; enough cells","nuclei per well, duplicate mean":5798,"call":"inactive"}
{"target":"DCT","migration robust z-score":1.42,"migration class with cell-count check":"migration z between -2 and 2; enough cells","nuclei per well, duplicate mean":6526,"call":"inactive"}
{"target":"C5orf22","migration robust z-score":-3.86,"migration class with cell-count check":"under 3300 nuclei; migration not judged","nuclei per well, duplicate mean":3177,"call":"inactive"}
{"target":"NEB","migration robust z-score":0.48,"migration class with cell-count check":"migration z between -2 and 2; enough cells","nuclei per well, duplicate mean":5462,"call":"inactive"}
{"target":"KCNA3","migration robust z-score":0.34,"migration class with cell-count check":"migration z between -2 and 2; enough cells","nuclei per well, duplicate mean":7181,"call":"inactive"}
{"target":"TRIM31","migration robust z-score":-2,"migration class with cell-count check":"migration z between -2 and 2; enough cells","nuclei per well, duplicate mean":4997,"call":"inactive"}
{"target":"MYPN","migration robust z-score":-0.07,"migration class with cell-count check":"migration z between -2 and 2; enough cells","nuclei per well, duplicate mean":6256,"call":"inactive"}
{"target":"TUBGCP6","migration robust z-score":0.42,"migration class with cell-count check":"migration z between -2 and 2; enough cells","nuclei per well, duplicate mean":5933,"call":"inactive"}
{"target":"STAR","migration robust z-score":0.1,"migration class with cell-count check":"migration z between -2 and 2; enough cells","nuclei per well, duplicate mean":5264,"call":"inactive"}
